Assay results taken from paper PMC4755757.
Results are given in words; binding and its absence hold for the method and conditions named. For some assays here: Binding calls can cover weak binding; strength is not graded here. For some assays here: Tags and fused reporters may be left off the sequences shown. For some assays here: In cells and extracts the contact can be indirect. Blank lines part the entries; values can stand above or below the molecule they belong to.

Sequences of proteins named here, by UniProt entry; tags and fusion partners are left off. A change or cut given only in a name is not applied to a line headed by its entry.
UniProt Q84V03: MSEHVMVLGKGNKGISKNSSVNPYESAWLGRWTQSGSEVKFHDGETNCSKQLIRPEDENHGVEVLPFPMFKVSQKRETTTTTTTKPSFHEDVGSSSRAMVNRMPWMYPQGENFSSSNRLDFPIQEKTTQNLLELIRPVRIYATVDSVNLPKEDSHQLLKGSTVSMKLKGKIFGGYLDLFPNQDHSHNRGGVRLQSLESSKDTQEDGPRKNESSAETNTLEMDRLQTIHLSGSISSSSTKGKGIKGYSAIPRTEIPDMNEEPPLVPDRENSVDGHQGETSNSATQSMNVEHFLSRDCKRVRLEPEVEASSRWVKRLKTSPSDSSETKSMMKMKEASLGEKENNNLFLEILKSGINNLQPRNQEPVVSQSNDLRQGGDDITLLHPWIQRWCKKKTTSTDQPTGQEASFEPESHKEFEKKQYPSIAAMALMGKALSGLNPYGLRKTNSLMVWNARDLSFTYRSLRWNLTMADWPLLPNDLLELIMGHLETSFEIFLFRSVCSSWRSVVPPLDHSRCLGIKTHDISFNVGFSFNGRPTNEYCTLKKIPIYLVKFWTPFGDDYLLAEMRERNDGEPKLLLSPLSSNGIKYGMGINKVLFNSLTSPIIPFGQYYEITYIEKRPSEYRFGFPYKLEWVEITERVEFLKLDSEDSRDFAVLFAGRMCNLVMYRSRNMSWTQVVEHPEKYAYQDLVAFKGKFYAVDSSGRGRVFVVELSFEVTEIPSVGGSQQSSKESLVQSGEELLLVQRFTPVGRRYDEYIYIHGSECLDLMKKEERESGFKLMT
UniProt P14713: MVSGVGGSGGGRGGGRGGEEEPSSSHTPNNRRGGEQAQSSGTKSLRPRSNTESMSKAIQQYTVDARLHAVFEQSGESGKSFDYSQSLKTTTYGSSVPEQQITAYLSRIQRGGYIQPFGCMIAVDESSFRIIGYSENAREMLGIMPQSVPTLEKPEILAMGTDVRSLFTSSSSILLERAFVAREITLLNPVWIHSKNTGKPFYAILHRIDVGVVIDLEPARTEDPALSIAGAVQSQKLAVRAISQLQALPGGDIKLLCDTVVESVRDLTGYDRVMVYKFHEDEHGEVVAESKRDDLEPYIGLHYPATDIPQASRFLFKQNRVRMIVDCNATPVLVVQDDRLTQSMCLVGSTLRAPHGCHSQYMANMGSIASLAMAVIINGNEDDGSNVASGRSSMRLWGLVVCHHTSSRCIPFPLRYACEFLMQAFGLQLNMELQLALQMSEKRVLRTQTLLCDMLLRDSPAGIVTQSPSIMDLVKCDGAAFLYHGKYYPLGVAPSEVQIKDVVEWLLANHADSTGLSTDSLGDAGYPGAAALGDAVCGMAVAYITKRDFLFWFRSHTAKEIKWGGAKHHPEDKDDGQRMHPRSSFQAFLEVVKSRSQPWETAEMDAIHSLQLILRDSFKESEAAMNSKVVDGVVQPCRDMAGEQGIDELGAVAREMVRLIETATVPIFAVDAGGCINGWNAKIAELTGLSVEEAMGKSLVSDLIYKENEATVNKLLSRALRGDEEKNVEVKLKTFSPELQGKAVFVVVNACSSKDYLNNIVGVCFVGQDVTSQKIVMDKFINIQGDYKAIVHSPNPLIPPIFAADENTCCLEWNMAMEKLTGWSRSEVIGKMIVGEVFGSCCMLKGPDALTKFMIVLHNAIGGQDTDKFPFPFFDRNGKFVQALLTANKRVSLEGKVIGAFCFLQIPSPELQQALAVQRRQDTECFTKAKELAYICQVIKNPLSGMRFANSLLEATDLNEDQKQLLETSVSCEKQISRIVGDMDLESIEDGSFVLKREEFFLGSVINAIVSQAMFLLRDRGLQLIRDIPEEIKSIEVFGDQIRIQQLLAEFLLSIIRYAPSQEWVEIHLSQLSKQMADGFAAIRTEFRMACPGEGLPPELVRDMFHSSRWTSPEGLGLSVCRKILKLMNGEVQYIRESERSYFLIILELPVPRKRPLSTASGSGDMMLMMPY

Tests used:
[1] = target: PCH1-His6-FLAG3, transiently expressed in tobacco (Nicotiana benthamiana) leaves (A. thaliana) (UniProt Q84V03); experiment: co-IP; transient co-expression in N. benthamiana leaves; anti-FLAG IP, westerns with anti-FLAG, phyB or GFP antibodies
[2] = target: PCH1 fused to GAL4 DNA binding domain (A. thaliana) (UniProt Q84V03); experiment: two-hybrid; Matchmaker GAL4 system; PCH1 fused to DBD, preys fused to AD; growth on -Leu -Trp -His with 2 mM 3AT, 4 days at 30°C
[3] = target: Recombinant His6-PCH1-His6-FLAG3 (A. thaliana) (UniProt Q84V03); experiment: pull-down; purified His6-PCH1-His6-FLAG3 bait with in vitro translated phyB-HA apoprotein (no PΦB), dark, 12°C; TALON beads, anti-HA blot; only the target purified
[4] = target: Recombinant His6-PCH1-His6-FLAG3 (A. thaliana) (UniProt Q84V03); experiment: pull-down; purified His6-PCH1-His6-FLAG3 bait with in vitro translated phyB-HA plus 20 µM PΦB under far red light (Pr, 25 µmol m^-2 s^-1), 12°C; TALON beads, anti-HA blot; only the target purified
[5] = target: Recombinant His6-PCH1-His6-FLAG3 (A. thaliana) (UniProt Q84V03); experiment: pull-down; purified His6-PCH1-His6-FLAG3 bait with in vitro translated phyB-HA plus 20 µM PΦB under red light (Pfr, 50 µmol m^-2 s^-1), 12°C; TALON beads, anti-HA blot; only the target purified
[6] = target: PCH1 fused to GAL4 DNA binding domain (A. thaliana), Q84V03; experiment: two-hybrid; Matchmaker GAL4 system; PCH1 fused to DBD, preys fused to AD; growth on -Leu -Trp -His with 2 mM 3AT, 4 days at 30°C; settings: remark: other sources report otherwise

binding [1]: binds
Molecule: phyB-GFP fusion protein, transiently expressed in tobacco (from UniProt P14713 1-1172)

binding [2]: binds
Molecule: phyB-Ct (amino acids 640-1173) fused to GAL4 activating domain (from UniProt P14713 640-1172) (domain or fragment)

binding [3]: binds weakly
Molecule: phyB-HA apoprotein (no PΦB) (from UniProt P14713 1-1172)

binding [4]: binds weakly
binding [5]: binds
Molecule: phyB-HA holoprotein (mixed with the chromophore phytochromobilin, PΦB) (from UniProt P14713 1-1172)

binding [6]: no binding
B1: ELF3 fused to GAL4 activating domain, O82804 1-695 (protein)
chain: MKRGKDEEKILEPMFPRLHVNDADKGGPRAPPRNKMALYEQLSIPSQRFGDHGTMNSRSNNTSTLVHPGPSSQPCGVERNLSVQHLDSSAANQATEKFVSQMSFMENVRSSAQHDQRKMVREEEDFAVPVYINSRRSQSHGRTKSGIEKEKHTPMVAPSSHHSIRFQEVNQTGSKQNVCLATCSKPEVRDQVKANARSGGFVISLDVSVTEEIDLEKSASSHDRVNDYNASLRQESRNRLYRDGGKTRLKDTDNGAESHLATENHSQEGHGSPEDIDNDREYSKSRACASLQQINEEASDDVSDDSMVDSISSIDVSPDDVVGILGQKRFWRARKAIANQQRVFAVQLFELHRLIKVQKLIAASPDLLLDEISFLGKVSAKSYPVKKLLPSEFLVKPPLPHVVVKQRGDSEKTDQHKMESSAENVVGRLSNQGHHQQSNYMPFANNPPASPAPNGYCFPPQPPPSGNHQQWLIPVMSPSEGLIYKPHPGMAHTGHYGGYYGHYMPTPMVMPQYHPGMGFPPPGNGYFPPYGMMPTIMNPYCSSQQQQQQQPNEQMNQFGHPGNLQNTQQQQQRSDNEPAPQQQQQPTKSYPRARKSRQGSTGSSPSGPQGISGSKSFRPFAAVDEDSNINNAPEQTMTTTTTTTRTTVTQTTRDGGGVTRVIKVVPHNAKLASENAARIFQSIQEERKRYDSSKP

binding [2]: binds
B2: phyD-Ct (amino acids 645-1165) fused to GAL4 activating domain (domain or fragment, UniProt P42497 645-1164)
chain: MVQQGMQEIGAVAREMVRLIETATVPIFAVDIDGCINGWNAKIAELTGLSVEDAMGKSLVRELIYKEYKETVDRLLSCALKGDEGKNVEVKLKTFGSELQGKAMFVVVNACSSKDYLNNIVGVCFVGQDVTGHKIVMDKFINIQGDYKAIIHSPNPLIPPIFAADENTCCLEWNTAMEKLTGWPRSEVIGKLLVREVFGSYCRLKGPDALTKFMIVLHNAIGGQDTDKFPFPFFDRKGEFIQALLTLNKRVSIDGKIIGAFCFLQIPSPELQQALEVQRRQESEYFSRRKELAYIFQVIKNPLSGLRFTNSLLEDMDLNEDQKQLLETSVSCEKQISKIVGDMDVKSIDDGSFLLERTEFFIGNVTNAVVSQVMLVVRERNLQLIRNIPTEVKSMAVYGDQIRLQQVLAEFLLSIVRYAPMEGSVELHLCPTLNQMADGFSAVRLEFRMACAGEGVPPEKVQDMFHSSRWTSPEGLGLSVCRKILKLMNGGVQYIREFERSYFLIVIELPVPLMMMMPSS

binding [6]: no binding
B3: COP1 fused to GAL4 activating domain, P43254 1-675 (protein)
chain: MEEISTDPVVPAVKPDPRTSSVGEGANRHENDDGGSGGSEIGAPDLDKDLLCPICMQIIKDAFLTACGHSFCYMCIITHLRNKSDCPCCSQHLTNNQLYPNFLLDKLLKKTSARHVSKTASPLDQFREALQRGCDVSIKEVDNLLTLLAERKRKMEQEEAERNMQILLDFLHCLRKQKVDELNEVQTDLQYIKEDINAVERHRIDLYRARDRYSVKLRMLGDDPSTRNAWPHEKNQIGFNSNSLSIRGGNFVGNYQNKKVEGKAQGSSHGLPKKDALSGSDSQSLNQSTVSMARKKRIHAQFNDLQECYLQKRRQLADQPNSKQENDKSVVRREGYSNGLADFQSVLTTFTRYSRLRVIAEIRHGDIFHSANIVSSIEFDRDDELFATAGVSRCIKVFDFSSVVNEPADMQCPIVEMSTRSKLSCLSWNKHEKNHIASSDYEGIVTVWDVTTRQSLMEYEEHEKRAWSVDFSRTEPSMLVSGSDDCKVKVWCTRQEASVINIDMKANICCVKYNPGSSNYIAVGSADHHIHYYDLRNISQPLHVFSGHKKAVSYVKFLSNNELASASTDSTLRLWDVKDNLPVRTFRGHTNEKNFVGLTVNSEYLACGSETNEVYVYHKEITRPVTSHRFGSPDMDDAEEEAGSYFISAVCWKSDSPTMLTANSQGTIKVLVLAA

binding [2]: no binding
B4: LUX (full length) fused to GAL4 activating domain (protein, UniProt Q9SNB4 1-323)
chain: MGEEVQMSDYDVSGDGDRVSEWEMGLPSDEDLASLSYSLIPPNLAMAFSITPERSRTIQDVNRASETTLSSLRGGSSGPNTSSSNNNVEEEDRVGSSSPGSDSKKQKTSNGDGDDGGGVDPDSAMAAEEGDSGTEDLSGKTLKRPRLVWTPQLHKRFVDVVAHLGIKNAVPKTIMQLMNVEGLTRENVASHLQKYRLYLKRMQGLTNEGPSASDKLFSSTPVPPQSFQDIGGGGGSSGNVGVPIPGAYGTQQMMQMPVYAHHMGMQGYHHQNHNHDPYHQNHRHHHGAGGNGAFESNPYMMQQNKFGSMASYPSVGGGSANEN

binding [2]: binds
B5: phyE-Ct (amino acids 583-1113) fused to GAL4 activating domain (domain or fragment, UniProt P42498 583-1112)
chain: NGVARDANELTSFVCEMVRVIETATAPIFGVDSSGCINGWNKKTAEMTGLLASEAMGKSLADEIVQEESRAALESLLCKALQGEEEKSVMLKLRKFGQNNHPDYSSDVCVLVNSCTSRDYTENIIGVCFVGQDITSEKAITDRFIRLQGDYKTIVQSLNPLIPPIFASDENACCSEWNAAMEKLTGWSKHEVIGKMLPGEVFGVFCKVKCQDSLTKFLISLYQGIAGDNVPESSLVEFFNKEGKYIEASLTANKSTNIEGKVIRCFFFLQIINKESGLSCPELKESAQSLNELTYVRQEIKNPLNGIRFAHKLLESSEISASQRQFLETSDACEKQITTIIESTDLKSIEEGKLQLETEEFRLENILDTIISQVMIILRERNSQLRVEVAEEIKTLPLNGDRVKLQLILADLLRNIVNHAPFPNSWVGISISPGQELSRDNGRYIHLQFRMIHPGKGLPSEMLSDMFETRDGWVTPDGLGLKLSRKLLEQMNGRVSYVREDERCFFQVDLQVKTMLGVESRGTEGSSSIK

binding [2]: no binding
B6: phyC-Ct (amino acids 592-1112) fused to GAL4 activating domain (domain or fragment, UniProt P14714 592-1111)
chain: DNRVQKVDELCVIVNEMVRLIDTAAVPIFAVDASGVINGWNSKAAEVTGLAVEQAIGKPVSDLVEDDSVETVKNMLALALEGSEERGAEIRIRAFGPKRKSSPVELVVNTCCSRDMTNNVLGVCFIGQDVTGQKTLTENYSRVKGDYARIMWSPSTLIPPIFITNENGVCSEWNNAMQKLSGIKREEVVNKILLGEVFTTDDYGCCLKDHDTLTKLRIGFNAVISGQKNIEKLLFGFYHRDGSFIEALLSANKRTDIEGKVTGVLCFLQVPSPELQYALQVQQISEHAIACALNKLAYLRHEVKDPEKAISFLQDLLHSSGLSEDQKRLLRTSVLCREQLAKVISDSDIEGIEEGYVELDCSEFGLQESLEAVVKQVMELSIERKVQISCDYPQEVSSMRLYGDNLRLQQILSETLLSSIRFTPALRGLCVSFKVIARIEAIGKRMKRVELEFRIIHPAPGLPEDLVREMFQPLRKGTSREGLGLHITQKLVKLMERGTLRYLRESEMSAFVILTEFPLI

binding [2]: no binding
B7: LUX-Ct (amino acids 144-324) fused to GAL4 activating domain (domain or fragment, UniProt Q9SNB4 144-323)
chain: RPRLVWTPQLHKRFVDVVAHLGIKNAVPKTIMQLMNVEGLTRENVASHLQKYRLYLKRMQGLTNEGPSASDKLFSSTPVPPQSFQDIGGGGGSSGNVGVPIPGAYGTQQMMQMPVYAHHMGMQGYHHQNHNHDPYHQNHRHHHGAGGNGAFESNPYMMQQNKFGSMASYPSVGGGSANEN

binding [2]: no binding
B8: LUX-Nt (amino acids 1-143) fused to GAL4 activating domain (domain or fragment, UniProt Q9SNB4 1-143)
chain: MGEEVQMSDYDVSGDGDRVSEWEMGLPSDEDLASLSYSLIPPNLAMAFSITPERSRTIQDVNRASETTLSSLRGGSSGPNTSSSNNNVEEEDRVGSSSPGSDSKKQKTSNGDGDDGGGVDPDSAMAAEEGDSGTEDLSGKTLK

binding [2]: no binding
B9: phyA-Ct (amino acids 606-1123) fused to GAL4 activating domain (domain or fragment, UniProt P14712 606-1122)
chain: DLKIDGIQELEAVTSEMVRLIETATVPILAVDSDGLVNGWNTKIAELTGLSVDEAIGKHFLTLVEDSSVEIVKRMLENALEGTEEQNVQFEIKTHLSRADAGPISLVVNACASRDLHENVVGVCFVAHDLTGQKTVMDKFTRIEGDYKAIIQNPNPLIPPIFGTDEFGWCTEWNPAMSKLTGLKREEVIDKMLLGEVFGTQKSCCRLKNQEAFVNLGIVLNNAVTSQDPEKVSFAFFTRGGKYVECLLCVSKKLDREGVVTGVFCFLQLASHELQQALHVQRLAERTAVKRLKALAYIKRQIRNPLSGIMFTRKMIEGTELGPEQRRILQTSALCQKQLSKILDDSDLESIIEGCLDLEMKEFTLNEVLTASTSQVMMKSNGKSVRITNETGEEVMSDTLYGDSIRLQQVLADFMLMAVNFTPSGGQLTVSASLRKDQLGRSVHLANLEIRLTHTGAGIPEFLLNQMFGTEEDVSEEGLSLMVSRKLVKLMNGDVQYLRQAGKSSFIITAELAAANK
